# The whole screen tested about 340,000 compounds, of which about 170 (0.05%) were called active. This list was built around the results that the source calls inconclusive (neither active nor inactive); the mix of calls is not that of the screen. The call rests on the fitted dose curve; in most records, active means well fitted inhibition curve with a large enough effect in the signal ratio, with a control signal flat (not every such curve was filed as active); inconclusive means small, poorly fitted or top-dose-only effect, or effect the other way, or a change in a side signal; inactive means flat fitted curve, though single readings scatter; the % refers to the signal ratio. Where the call is inconclusive, the potency comes from a doubtful curve fit.
# Assay: qHTS Assay to Find Inhibitors of Chronic Active B-Cell Receptor Signaling;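 on activity change, negative = inhibition: plate controls were basal doxycycline-induced cells for no effect and cells given 10 µM MG132 for full effect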
# Details: ABC-DLBCL IkBa-CBG/CBR reporter, luminescence ratio (green luciferase fused to IkBa over red control in TMD8 lymphoma cells), 4 h; activity change, negative = inhibition: at 46.1 µM (top of the series)
# Outline: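 Compounds up to 46 uM were incubated four hours with TMD8 cells whose green CBG68 luciferase is fused to IkappaBalpha; red CBR luminescence normalised the signal, and concentration-effect curves were fitted to fusion, red and ratio data.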
# Potency means the concentration at half of the fitted maximal effect.
Structure (SMILES),"activity change, negative = inhibition",Potency
NC(=O)c1ccsc1NC(=O)COC(=O)CSc1ccc(Cl)cc1,inconclusive: -8.23%,–
CCN(CC)S(=O)(=O)c1ccc2c(c1)c(=O)c(C(=O)N1CCN(c3ccccn3)CC1)cn2C,inconclusive: 3.71%,–
C/C=C/c1ccc(OCCNCc2ccccc2)c(OC)c1,inconclusive: 5.25%,–
COc1cccc(Nc2nn3c(=O)c4ccccc4nc3s2)c1,inconclusive: 9.87%,–
CCOC(=O)C(CC)/C(C)=N/NC(=O)c1ccc([N+](=O)[O-])cc1 (configuration not stated),inactive: 0.215%,–
Cc1noc(C)c1C(=O)Nc1nc(-c2ccccc2Cl)cs1,inactive: 15%,–
COc1c2ccoc2cc2oc(=O)ccc12,inactive: 5.05%,–
O=c1[nH]c(/C=C2\C=Nc3ccccc32)c(O)n1Cc1ccccc1F,inconclusive: 8.18%,–
Cc1ccc(C(=O)OC(C)C(=O)Nc2ccc(S(N)(=O)=O)cc2)cc1S(=O)(=O)N1CCOCC1 (configuration not stated),inconclusive: 11.4%,–
O=C(O)c1ccccc1NN=C1CCCCC1,inconclusive: -24.7%,–
O=C1c2cccc3cc([N+](=O)[O-])cc(c23)C(=O)N1CCN1CCCC1,–,"inconclusive: 2 µM [rising, full curve, poor fit]"
COc1ccc2nc3oc(C(=O)N4CCCCC4)cc3cc2c1,inconclusive: -15.5%,–
Cc1ccc(C(=O)Nc2ccc3c(c2)N(C)C(=O)c2ccccc2S3)cc1,inactive: -15.8%,–
Cc1cc(C)c2c(N)c(C(=O)NN3CC(=O)N(c4ccccc4)CC3=O)sc2n1,–,"inconclusive: 7.94 µM [rising, partial curve, poor fit]"
CCc1ccc(NC(=O)c2cc(S(=O)(=O)N3CCCC3)ccc2F)cc1,–,"inconclusive: 12.6 µM [falling, partial curve, poor fit]"
Cc1noc(C)c1S(=O)(=O)Nc1ccc2c(c1)C(=O)N([C@H](C)CO)C[C@H](C)[C@@H](CN(C)C(=O)NC1CCCCC1)O2,inconclusive: 0.0213%,–
N#CC1C(C#N)N2CCCN2C1c1ccc(Br)cc1 (configuration not stated),inconclusive: 5.3%,–
COc1ccc(S(=O)(=O)N(C)c2ccc(C(=O)Nc3cccnc3)cc2)cc1,inconclusive: -1.79%,–
C/C(=N\Nc1ccc(Cl)cc1)c1c(O)cc(C)oc1=O,inactive: 4.97%,–
O=C(OCc1cccc(C(F)(F)F)c1)c1cc([N+](=O)[O-])ccc1N1CCOCC1,inconclusive: -9.89%,–
Cc1ccccc1C(=O)NC(=S)NCc1ccccc1,inactive: 1.2%,–

# Single records, as listed above.
# CCN(CC)S(=O)(=O)c1ccc2c(c1)c(=O)c(C(=O)N1CCN(c3ccccn3)CC1)cn2C in the list: activity change, negative = inhibition: inconclusive: 3.71%
# N#CC1C(C#N)N2CCCN2C1c1ccc(Br)cc1 (configuration not stated) in the list: activity change, negative = inhibition: inconclusive: 5.3%
# O=C1c2cccc3cc([N+](=O)[O-])cc(c23)C(=O)N1CCN1CCCC1 in the list: Potency: inconclusive: 2 µM [rising, full curve, poor fit]

# Next records:

Structure (SMILES),"activity change, negative = inhibition",Potency
CN(C)CCCn1c(SCC(=O)N2c3ccccc3Sc3ccccc32)nc2ccccc2c1=O,–,"inconclusive: 20.6 µM [falling, partial curve]"
Cc1ccccc1N/C(=N/S(=O)(=O)c1cc(F)ccc1F)c1ccccc1,inconclusive: 0.777%,–
COc1cc(/C=C(\C#N)C(=O)N2CCc3ccccc32)ccc1O,–,"inconclusive: 0.447 µM [falling, full curve]"
O=C(Nc1ccon1)c1ccc(Cl)c(S(=O)(=O)N2CCCCC2)c1,inactive: -0.637%,–
N#Cc1ccccc1OCC(=O)Nc1cccc(S(=O)(=O)N2CCCC2)c1,inconclusive: -9.95%,–
COc1ccc(N2CCN(C(=O)c3ccc4c(c3)NC(=O)C(CSCc3cccc(F)c3)N4)CC2)cc1 (configuration not stated),–,"inconclusive: 11.2 µM [falling, single point]"
CS(=O)(=O)c1ccc(Cl)c(NC(=O)COC(=O)CNC(=O)c2cccs2)c1,inconclusive: 3.52%,–
COc1ccccc1NCN1C(=O)CCC1=O,–,"inconclusive: 10 µM [falling, partial curve, poor fit]"
COc1ccc(C(=O)Nc2nnc(SCC(=O)NCc3ccco3)s2)c(OC)c1,inconclusive: -13.5%,–
COc1cc2ncc(S(=O)(=O)c3ccccc3)c(N3CCCC(C)C3)c2cc1OC (configuration not stated),inconclusive: -10.1%,–
O=C(NC(=S)N1CCN(c2c(Cl)cccc2[N+](=O)[O-])CC1)c1cccs1,inconclusive: -13.5%,–
O=C(c1cccc(S(=O)(=O)N2CCOCC2)c1)N1CCCCCC1,inconclusive: -1.14%,–
O=C(CSc1ncccn1)N1CCCc2ccccc21,inconclusive: 15.3%,–
COc1ccc2cc3c(N)nn(C(=O)c4ccc(F)cc4)c3nc2c1,inconclusive: -9.98%,–
CC1=NC(=O)C(N=Nc2ccccc2)N1c1ccccc1 (configuration not stated),inactive: -0.341%,–
C/C(CC(=O)NCc1ccco1)=N\NC(=O)Cc1cccc2ccccc12,–,"inconclusive: 35.5 µM [falling, partial curve, poor fit]"
Cc1nc(-c2cccc(NS(=O)(=O)c3cccc4ccccc34)c2)cs1,inconclusive: 2.16%,–
COc1cc(-c2noc(C)c2C(=O)NCCc2cccs2)cc(OC)c1OC,inconclusive: -1.47%,–
CCN(CC)c1ccc(NC(=O)CN(C)Cc2cccs2)cc1,inconclusive: 8.9%,–
O=C1C2CC=C(Cl)CC2C(=O)N1CCCCCCN1C(=O)C2CC=C(Cl)CC2C1=O (configuration not stated),inconclusive: 16.2%,–
COc1ccccc1NC(=O)NN1CCCCC1,inconclusive: 14.4%,–

Structure (SMILES),"activity change, negative = inhibition",Potency
Cc1nc2cc(-c3ccc(Br)cc3)[nH]n2c(=O)c1Cl,–,"inconclusive: 3.55 µM [falling, partial curve]"
CCOc1ccc(Nc2nc(Cc3nnc(SCC(N)=O)o3)cs2)cc1,inconclusive: -5.21%,–
O=C(Nc1ccc(N2CCCCC2)cc1)c1cccnc1,–,"inconclusive: 20.6 µM [falling, single point]"
Cc1nc2ccc(NC(=O)CCS(=O)(=O)c3ccccc3)cc2s1,inactive: 7.27%,–
O=C(COC(=O)c1cc(Br)ccc1O)NNC(=O)c1ccc(Cl)cc1,inconclusive: 6.53%,–
COc1cc(/C=N/c2oc(-c3ccccc3)cc2C#N)ccc1O,inactive: 20%,–
O=C(NNc1nc2ccccc2s1)Nc1ccc(F)cc1,–,"inconclusive: 20 µM [falling, single point]"
O=C(NC1CCCCCC1)c1ccc(S(=O)(=O)NCc2ccco2)cc1,inconclusive: -5.61%,–
CC(=O)N=c1c(C#N)cc2c(=O)n3cccc(C)c3nc2n1Cc1ccco1,inactive: 23.9%,–
Cc1ccc(-n2ncc3c(N4CCC5(CC4)OCCO5)ncnc32)c(C)c1,inconclusive: 23.7%,–
Cc1c(Nc2nc(-c3ccc(Cl)cc3)cs2)c(=O)n(-c2ccccc2)n1C,inconclusive: 5.74%,–
COc1cc2c(cc1OC)C1(C)N(CC2)C(C(C)=O)=NN1c1ccc(Cl)cc1 (configuration not stated),inconclusive: -8.36%,–
COc1ccc(C2(C)NC(=O)N(CC(=O)c3cc(C)n(C4CC4)c3C)C2=O)cc1 (configuration not stated),inconclusive: -4.19%,–
O=C(NCc1ccco1)C1(c2ccc(Br)cc2)CCCC1,–,"inconclusive: 23.1 µM [rising, partial curve, poor fit]"
CCOC(=O)C1(CCCc2ccccc2)CCN(C2CCSCC2)CC1,inconclusive: -34.8%,–
CC(=O)Nc1ccc(S(=O)(=O)Nc2cc(C)ccn2)cc1,inconclusive: -7.37%,–
O=c1c2oc3nc4c(cc3c2ncn1CCCc1ccccc1)CCCC4,inconclusive: -0.383%,–
Cc1ccc(/C(O)=C/C(=O)C(=O)NNC(=O)C(O)(c2ccccc2)c2ccccc2)cc1,inactive: 25.8%,–
CCCn1cc(CN2CCN(Cc3ccc(C)o3)C(CCO)C2)c(C)n1 (configuration not stated),inconclusive: 1.47%,–
CCC(=O)N1N=C(c2cccs2)CC1c1ccc(C)cc1 (configuration not stated),inactive: 0.941%,–
CC1CCN(Cc2cc(=O)oc3cc4c(cc23)CCCC4)CC1,inconclusive: -3.78%,–

# Nothing new here: two of the compounds above.
Structure (SMILES),"activity change, negative = inhibition",Potency
CC(=O)N=c1c(C#N)cc2c(=O)n3cccc(C)c3nc2n1Cc1ccco1,inactive: 23.9%,–
Cc1ccc(-n2ncc3c(N4CCC5(CC4)OCCO5)ncnc32)c(C)c1,inconclusive: 23.7%,–

# Continued.

Structure (SMILES),"activity change, negative = inhibition",Potency
COC(=O)N/N=C/c1cn(Cc2c(Cl)cccc2Cl)c2ccccc12,inconclusive: 0.0677%,–
O=[N+]([O-])c1ccc(NCc2ccccc2)nc1,inactive: 5.1%,–
CCc1ccc(CCC(=O)Nc2nccs2)o1,inconclusive: 0.254%,–
O=C(Nc1ccc(N2CCCCC2)cc1)c1cc(S(=O)(=O)N2CCOCC2)ccc1F,–,"inconclusive: 20.6 µM [falling, partial curve]"
Cc1nc(C(=O)NC2CCOCC2)sc1C1(C)CC(c2cccc([N+](=O)[O-])c2)=NO1 (configuration not stated),inconclusive: -1.17%,–
CCc1c(C(=O)O)[nH]c2ccc(Br)cc12,inactive: 3.02%,–
Cc1sc2nc(SCC(=O)NCc3ccco3)n(Cc3ccccc3)c(=O)c2c1C,inconclusive: 12.2%,–
C/C(=N\OCC(=O)OC(C)C(=O)Nc1ccc(C(N)=O)cc1)c1ccc2c(c1)OCO2 (configuration not stated),inactive: -3.85%,–
O=C(COC(=O)c1ccc(F)c(S(=O)(=O)N2CCOCC2)c1)NCCc1ccc(F)cc1,–,"inconclusive: 18.4 µM [falling, partial curve, poor fit]"
O=C(CSc1nc2ccc(NC(=O)c3ccccc3C(=O)O)cc2s1)Nc1ccc(F)c([N+](=O)[O-])c1,–,"inconclusive: 11.2 µM [falling, partial curve]"
CCCCCCNC(=O)C(C#N)c1nc2ccccc2nc1N1CCCC1 (configuration not stated),inactive: 21%,–
CCc1nc2ccc(C(=O)N(C)CC(=O)Nc3ccccc3C(F)(F)F)cc2nc1CC,inconclusive: 0.361%,–
CC(C)OC(=O)N(C)c1ccc(C(O)(C(F)(F)F)C(F)(F)F)cc1,–,"inconclusive: 5.17 µM [falling, full curve, poor fit]"
COc1ccc(-c2ccc(CCC(=O)O)o2)cc1,inactive: -14.6%,–
CCOC(=O)C(NC(C)=O)(Nc1ccc(S(=O)(=O)Nc2onc(C)c2C)cc1)C(F)(F)F (configuration not stated),inconclusive: 0.456%,–
CSCCNCc1cn(-c2ccc(F)cc2F)nc1-c1ccccc1C,inconclusive: 0.691%,–
CC(NC(=O)c1ccc(=O)oc1)c1ccccc1 (configuration not stated),inactive: -1.76%,–
COC(=O)Cc1cc(=O)n2[nH]c(C)cc2n1,inconclusive: 14.2%,–
CNC(=O)c1sc2nc(-c3ccc(OC)cc3)cn2c1C,–,"inconclusive: 29.1 µM [falling, single point]"
